In the supplement of paper PMC11150407 one finds cell viability data, which are given here for 96 compounds.

As a reminder, the cell viability is a read-out of living cells in per cent, often relative to untreated cells.

Screen size: about 3,000 compounds; about 45 (2%) showed an effect of 50% or more. This is one part of the list.

In the assay the test system is MOLM1 and UCSD/AML1 (averaged). The assay can be described thus: cell viability relative to DMSO control (POC); higher = less growth inhibition. The conditions noted are these: 1 µM; 72 h. Here is the method:
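Primary viability screen in the 3q26 EVI1-high AML cell lines MOLM1 and UCSD/AML1, compounds at 1 uM for 72 h. ATP CellTiter-Glo read-out given as percent viable over DMSO control (POC), averaged over duplicates. This mapping covers the TimTec NDL-3000 natural derivative library, whose compounds are identified by TimTec catalogue codes (ST...).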
As for `NC1=C(C(=O)OCc2ccccc2)C(c2cccnc2)c2oc(CO)cc(=O)c2O1` (stereo unspecified), the cell viability is 118%. With `O=C(O)CNC(=O)c1ccccc1I` the figure was 115%. As to `COc1ccc2[nH]c(C)c(CCNC(=O)c3cc(OC)c(OC)c(OC)c3)c2c1`, the cell viability is 99.4%. With `CC(=O)OC1CCC2(C)C(C1)CC(OC(C)=O)C1C2CC(OC(C)=O)C2(C)C(C(C)CCC(=O)O)CCC12` (stereo unspecified) the figure was 91.5%.

As to `Cn1c(=O)c2c(nc(Cl)n2Cc2ccccc2F)n(C)c1=O`, the cell viability was 101%.

On to `COc1cc(C(=O)Nc2ccc(-n3nc(C)cc3Cl)cc2)cc(OC)c1OC`, for which the cell viability was determined as 97.5%. With `COc1cc2c(cc1OC)C(=O)N(C)C(=O)C2=O` the figure was 108%. On to `Cc1ccc(-n2c(SCc3nc(-c4ccc(Cl)cc4)oc3C)nc3c(=O)[nH]cnc32)cc1`, for which the cell viability was 106%.

Take `COc1cc(-c2nnc(SCC(N)=O)n2-c2ccc3c(c2)OCO3)cc(OC)c1OC`: the cell viability was 112%. As for `O=C(NNC(=O)c1cc2cc(Br)ccc2oc1=O)c1ccccc1I`, the cell viability came out at 94.3%. In the case of `COC(=O)C1=C(C)NC2=C(C(=O)CCC2)C1c1cc(Br)c(O)c(OC)c1` (stereo unspecified), the cell viability was 120%. With `COc1cc(Br)c(CCn2c(N)c(Br)c(=O)[nH]c2=O)cc1OC` the figure was 95%; with `O=C(O)/C=C/c1c(Cl)cccc1Cl`, 94.6%. For `O=C(Nc1ccc2oc(-c3ccccc3Cl)nc2c1)c1ccc2c(c1)OCCO2`, the cell viability was 91.6%. Consider `Cc1cc(C)c2c(CN3CCC(N4CCCCC4)CC3)cc(=O)oc2c1`, for which the cell viability was found to be 99.9%. With `CCOc1ccc2oc(=O)cc(CN3CCN(Cc4cc(C=O)ccc4OC)CC3)c2c1` the figure was 94.5%; with `CN(CC(=O)O)S(=O)(=O)c1ccc2oc3ccccc3c2c1`, 108%; with `COc1ccc(C(=O)CC2(O)C(=O)Nc3ccccc32)cc1OC` (stereo unspecified), 104%.

As to `COc1ccc(Nc2nc(N)c(C(=O)c3ccc(OC)c(OC)c3)s2)cc1`, the cell viability is 15.4%.

With `Cc1nc2c(nc(SCc3nc(-c4cccc(Br)c4)oc3C)n2C)c(=O)[nH]1`, the cell viability is 96.5%. With `COc1cc(OC)c(N=C2C(=O)N(CN3CCc4ccccc4C3)c3ccccc32)cc1Cl` the figure was 93.6%; with `Cn1c(=O)c([N+](=O)[O-])c(Cl)c2ccccc21`, 68.4%. With `Cn1c(NC(=O)CSc2nnc(-c3ccco3)o2)cc(=O)n(C)c1=O` the figure was 104%. With `CCOC(=O)Cc1ccc(NCCC(=O)c2cc3ccccc3oc2=O)cc1` the figure was 112%. With `COC(=O)CC(CC(=O)OC)c1ccc(OC)c(OC)c1`, the cell viability was found to be 102%. With `CC(=O)N(CCc1c(C)[nH]c2ccccc12)C(C(=O)Nc1c(C)cccc1C)c1ccc(Cl)cc1` (stereo unspecified) the figure was 96.6%; with `NC(CCCCCC(=O)O)CCCCC(=O)O` (stereo unspecified), 104%.

Consider `COc1ccccc1NC(=O)CSc1nc2c(=O)[nH]cnc2n1-c1ccc(C)cc1`, for which the cell viability turned out to be 99.1%. With `Cc1ccc(NC(=O)Cn2c(=O)cc(C(=O)NCc3ccccc3)c3ccccc32)cc1C`, the cell viability was found to be 102%. For `COC(=O)C1=C(C)NC2=C(C(=O)CCC2)C1c1cc(Cl)c(O)c(OC)c1` (stereo unspecified), the cell viability came to 112%. With `COc1ccc(OC)c(NC(=O)CSc2nc3c(=O)[nH]cnc3n2C)c1` the figure was 123%.

In the case of `COc1ccc(C2c3[nH]c4ccccc4c3CCN2CC(=O)Nc2ccc(C)cc2)cc1` (stereo unspecified), the cell viability was found to be 87.2%. In the case of `CCn1c(=O)c([N+](=O)[O-])c(N2CCC(C)CC2)c2ccccc21`, the cell viability turned out to be 100%. With `CCc1ccc(OCCNc2c([N+](=O)[O-])c(=O)oc3ccccc23)cc1` the figure was 97.2%. `COC(=O)C(Cc1c[nH]c2ccccc12)NC(=O)CN1CCC2(O)CCCCC2C1c1ccc(O)c(OC)c1` (stereo unspecified): the cell viability is 103%. On to `CC(C)CC(NC(=O)C(Cc1ccccc1)NC(=O)C1CCCN1C(=O)OCc1ccccc1)C(=O)OC(C)(C)C` (stereo unspecified), for which the cell viability was determined as 89.5%. Take `COc1cc(C2C3CCCCC3(O)CCN2CC(=O)Nc2ccc(Cl)cc2)cc(OC)c1OC` (stereo unspecified): the cell viability was determined as 102%. As to `CC(=O)OC1CCC2(C)C(CCC3(C)C2C(=O)C=C2C4CC(C)(C(=O)NCc5ccccc5)CCC4(C)CCC23C)C1(C)C` (stereo unspecified), the cell viability was determined as 82.6%. Consider `COc1ccc(-c2c(C)c3cc(O)ccc3oc2=O)cc1OC`, for which the cell viability was 101%. With `CC(=O)Oc1cc(OC(C)=O)c2c(c1CC=C(C)C)O[C@H](c1ccccc1)CC2=O` the figure was 88.2%; with `COc1cc(C2C(=O)c3cc(OC)c(OC)c(OC)c3C2=O)cc(OC)c1OC` (stereo unspecified), 110%; with `CCc1ccc(N(CC)C(=O)CSc2nc3ccccc3c(=O)[nH]2)cc1`, 106%. Turning to `Cc1[nH]c2ccc(Br)cc2c1CCNC(=O)c1cccs1`, the cell viability was 100%. With `O=C(Cc1n[nH]c(=O)[nH]c1=O)N/N=C/c1ccccc1[N+](=O)[O-]` the figure was 98.9%. `O=C(Cn1c(=O)cc(C(=O)N2CCCC2)c2ccccc21)Nc1cccc(C(F)(F)F)c1`: the cell viability came out at 95.3%. With `COc1cccc(-c2nc(CSc3nc4c(=O)[nH]cnc4n3C)c(C)o2)c1OC` the figure was 123%; with `O=C(/C=C/c1ccc(-n2c(=O)c3cc4c(=O)n(-c5ccc(/C=C/C(=O)c6ccccc6)cc5)c(=O)c4c(C(=O)c4ccc(Cl)cc4)c3c2=O)cc1)c1ccccc1`, 104%. With `CCOC(=O)C1=C(N)Oc2c(oc(CO)cc2=O)C1c1cc([N+](=O)[O-])ccc1Cl` (stereo unspecified) the figure was 87.1%; with `Cc1cc2c(C(C)C)c(O)c(O)c(/C=N/NC(=O)NC3CCCCC3)c2c(O)c1-c1c(C)cc2c(C(C)C)c(O)c(O)c(/C=N/NC(=O)NC3CCCCC3)c2c1O`, 103%; with `COc1cc(C2C(C#N)=C(N)SC(N)=C2C#N)cc([N+](=O)[O-])c1O`, 93.2%. On to `COC(=O)/C=C/c1ccc(OC)c(OC)c1OC`, for which the cell viability was determined as 98.3%. With `CCN(CC)c1ccc(C2C3CCCCC3(O)CCN2C(=O)/C=C/c2ccc(OC)cc2)cc1` (stereo unspecified) the figure was 85.6%. With `NC(=O)CC1CCCCN1` (stereo unspecified) the figure was 126%; with `O=C(Oc1ccc2c(=O)c(Cl)coc2c1)c1cccnc1`, 105%; with `COc1ccc(C(=O)CCNc2cc(OC)c(OC)c(OC)c2)cc1OC`, 107%. Regarding `Cc1cc2c(C(C)C)c(O)c(O)c(C=NCCN3CCN(C)CC3)c2c(O)c1-c1c(C)cc2c(C(C)C)c(O)c(O)c(C=NCCN3CCN(C)CC3)c2c1O`, the cell viability amounted to 98.8%. Take `O=c1cc(C(Cl)(Cl)Cl)oc2ccc(Cl)cc12`: the cell viability is 7.16%. Take `Cc1ccc2oc(-c3ccc(Cl)cc3)cc(=O)c2c1`: the cell viability was 85.9%.

Regarding `COc1cc(O)c(C(=O)Cc2ccccc2Cl)c(OC)c1`, the cell viability is 103%.

With `CC(=O)CCCCC(=O)CCCCC(=O)O`, the cell viability came out at 115%. Take `CC(=O)NC(C)C(=O)O` (stereo unspecified): the cell viability was 102%.

Take `COc1ccc(C2CC(=O)c3cc(Cl)ccc3O2)cc1OC` (stereo unspecified): the cell viability was found to be 84.9%. As to `CC(=O)NC(Cc1c[nH]c2ccccc12)C(=O)NCCOc1ccccc1-c1ccccc1` (stereo unspecified), the cell viability came to 100%. For the compound `COC1OC(COC(c2ccccc2)(c2ccccc2)c2ccccc2)C(O)C(O)C1O` (stereo unspecified), the cell viability was determined as 97.1%. With `COc1ccc(S(=O)(=O)Nc2ccc(C(=O)NCC(=O)O)cc2)cc1-n1cnnn1` the figure was 91.6%.

Take `Brc1cc(Br)c2c(c1)C=C1CCCCCC1(N1CCOCC1)O2` (stereo unspecified): the cell viability was determined as 117%. With `Cc1cc2c(C(C)C)c(O)c(O)c(C=NC(C)CCc3ccco3)c2c(O)c1-c1c(C)cc2c(C(C)C)c(O)c(O)c(C=NC(C)CCc3ccco3)c2c1O` (stereo unspecified) the figure was 96.3%; with `CC(=O)Oc1ccc(/C=C/C(=O)OCC2OC(Oc3cc(OC(C)=O)c4c(c3)O[C@H](c3ccc(OC(C)=O)cc3)CC4=O)C(OC(C)=O)C(OC(C)=O)C2OC(C)=O)cc1` (stereo partly specified), 89.5%. With `COc1cc(/C=N/NC(=O)C(O)(c2cccc(C)c2)c2cccc(C)c2)cc(OC)c1OC` the figure was 91.5%; with `O=C(c1ccccc1)N1CCN(CC(O)Cn2c3ccccc3c3ccccc32)CC1` (stereo unspecified), 99.4%; with `O=C(c1cc2nc(-c3ccccc3)cc(C(F)(F)F)n2n1)N1CCc2ccccc2C1`, 95.1%. With `COc1ccc2c(c1)c(CC(=O)NC13CC4CC(CC(C4)C1)C3)c(C)n2C(=O)c1ccc(Cl)cc1` the figure was 77%; with `Cc1cc2c(c(O)c1-c1c(C)cc3c(c1O)/C(=C/Nc1ccc(-c4ccc(N)cc4)cc1)C(=O)C(O)=C3C(C)C)/C(=C/Nc1ccc(-c3ccc(N)cc3)cc1)C(=O)C(O)=C2C(C)C`, 66.4%. Turning to `COc1ccc(/C=C/C(=O)Nc2cccc3ccccc23)cc1OC`, the cell viability was 97.8%.

In the case of `COc1cc(C2C3CCCCC3(O)CCN2CC(=O)NCc2ccco2)cc(OC)c1OC` (stereo unspecified), the cell viability was 99.5%. With `CCOc1cccc(C2Nc3ccccc3NC3=C2C(=O)CC(C)(C)C3)c1` (stereo unspecified) the figure was 86.3%; with `O=C(NNC1OC(CO)C(O)C(O)C1O)c1cccnc1` (stereo unspecified), 98.5%; with `Cc1[nH]c2ccccc2c1CCNC(=O)c1c(F)cccc1F`, 97.4%.

With `O=C(O)C1Nc2c(I)cccc2C2C=CCC12` (stereo unspecified), the cell viability stood at 93.1%. Take `COc1cc(C(=O)Nc2ccc(C(F)(F)F)cc2)cc(OC)c1OC`: the cell viability was 93.8%.

On to `COc1cc(C2C(C#N)=C(N)Oc3cc(N)ccc32)cc(OC)c1OC` (stereo unspecified), for which the cell viability was 13.5%.

As for `COc1cc(C(=O)CCNc2ccc(C)c(Cl)c2)cc(OC)c1OC`, the cell viability was found to be 97.9%. With `CCOC(=O)C(Cc1c[nH]c2ccccc12)NC(=O)C12CC3CC(CC(C3)C1)C2` (stereo unspecified), the cell viability is 97%.

With `COc1ccc2c(c1)c(CC(=O)NCCSc1ccccc1)c(C)n2C(=O)c1ccc(Cl)cc1`, the cell viability turned out to be 98.5%. Turning to `O=c1cc(-c2cccc(O)c2)oc2cc(O)c(O)cc12`, the cell viability was 101%. With `CCOC(=O)/C=C/C(=O)Nc1ccccc1-c1ccccc1NC(=O)/C=C/C(=O)OCC` the figure was 60.3%; with `Cn1c(=O)c2c(ncn2CC(=O)NCc2ccc(S(N)(=O)=O)cc2)n(C)c1=O`, 95.2%; with `Cc1ccc(-n2c(SCC(=O)Nc3cccc(C(F)(F)F)c3)nc3c(=O)[nH]cnc32)cc1`, 112%. With `Cc1ccc(-n2c(SCC(=O)Nc3ccc(Cl)cc3)nc3c(=O)[nH]cnc32)cc1` the figure was 97.1%; with `CCOc1ccc2oc(=O)cc(CN3CCN(CC(=O)N4CCc5ccccc54)CC3)c2c1`, 90%; with `COc1cc(-c2nc(CSc3nc4c(=O)[nH]c(C)nc4n3C)c(C)o2)cc(OC)c1OC`, 99.8%. Consider `COc1cc(C(=O)c2nccc3cc(OC)c(OC)cc23)c([N+](=O)[O-])cc1OC`, for which the cell viability was determined as 98.4%. As to `CCCCCCc1ccc(O)cc1O`, the cell viability was 90.1%. With `COc1ccc(/C=C/C(=O)Nc2ccccc2)cc1` the figure was 102%; with `NC(=O)Cc1ccc(O)cc1`, 98%; with `O=c1cc(-c2ccc(Br)cc2)oc2ccc(Br)cc12`, 94.2%.
